Here are results for three substances from US5316919A (priority 1992, dated 1994).

For part of these data: HELM strings list residues between dots; [ac] is acetyl, [am] amide, other brackets name non-standard units.

Common to all, as to conditions: whole synthesis, scale 0.5 mmol
A short description of series [1]: Boc solid-phase peptide synthesis; Boc-Glu(OBzl) PAM resin; dicyclohexylcarbodiimide.
The nature of series [2]: Boc solid-phase peptide synthesis; Boc-L-Ala PAM resin; dicyclohexylcarbodiimide.
Series [3] is described as follows: Boc solid-phase peptide synthesis; Boc-L-Pro PAM resin; dicyclohexylcarbodiimide.

On to H-HSDAVFTDNYTRLRKQLAVKKYLNSILNGPE-OH, for which, in series [1], the isolated mass is on record as 50 mg. Regarding “PEPTIDE1{H.S.D.A.V.F.T.D.N.Y.T.R.L.R.K.Q.L.A.V.K.K.Y.L.N.S.I.L.N.G.P.E.A}$$$$V2.0”, the isolated mass in series [2] amounted to 40 mg. Take “PEPTIDE1{H.S.D.A.V.F.T.D.N.Y.T.R.L.R.K.Q.L.A.V.K.K.Y.L.N.S.I.L.N.G.P}$$$$V2.0”: the isolated mass in series [3] is 50 mg.
